In PMC5341944:
No constants are given. Whether binding was seen depends on the method and setting. Binding seen in cells or lysates may run through a third protein. Some binding calls cover weakened binding; strength is not graded here. Where a sequence is shown, tags or fusion partners need not be part of it.

Protein sequences, listed by entry. Tags and fused reporters are not part of them.
UniProt O60566: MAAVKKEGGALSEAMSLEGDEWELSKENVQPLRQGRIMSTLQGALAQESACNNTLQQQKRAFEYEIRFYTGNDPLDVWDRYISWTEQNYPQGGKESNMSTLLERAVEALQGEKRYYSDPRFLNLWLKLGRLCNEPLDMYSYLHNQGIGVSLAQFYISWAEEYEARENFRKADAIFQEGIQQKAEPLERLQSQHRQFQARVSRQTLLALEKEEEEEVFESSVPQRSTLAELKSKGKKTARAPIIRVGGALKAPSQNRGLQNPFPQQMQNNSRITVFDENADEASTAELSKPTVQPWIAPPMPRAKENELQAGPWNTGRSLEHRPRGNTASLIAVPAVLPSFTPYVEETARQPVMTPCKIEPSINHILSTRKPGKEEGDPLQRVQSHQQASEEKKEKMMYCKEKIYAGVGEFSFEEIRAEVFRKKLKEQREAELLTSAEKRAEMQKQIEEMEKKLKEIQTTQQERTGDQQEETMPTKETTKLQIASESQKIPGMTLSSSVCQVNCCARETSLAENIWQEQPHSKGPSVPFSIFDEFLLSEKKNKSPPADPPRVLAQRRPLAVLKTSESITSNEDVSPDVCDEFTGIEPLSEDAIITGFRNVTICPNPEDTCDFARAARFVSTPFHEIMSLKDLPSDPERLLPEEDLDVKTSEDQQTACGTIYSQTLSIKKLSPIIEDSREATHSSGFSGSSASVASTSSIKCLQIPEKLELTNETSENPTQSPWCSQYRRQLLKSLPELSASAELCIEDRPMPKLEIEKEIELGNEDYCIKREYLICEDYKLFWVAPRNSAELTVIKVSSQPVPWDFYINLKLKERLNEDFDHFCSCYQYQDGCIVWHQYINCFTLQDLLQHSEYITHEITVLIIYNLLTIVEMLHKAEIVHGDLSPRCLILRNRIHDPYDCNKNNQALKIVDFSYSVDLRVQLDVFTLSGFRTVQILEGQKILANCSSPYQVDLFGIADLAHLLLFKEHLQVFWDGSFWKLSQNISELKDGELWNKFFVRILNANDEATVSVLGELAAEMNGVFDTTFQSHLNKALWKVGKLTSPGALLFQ
UniProt Q96H22: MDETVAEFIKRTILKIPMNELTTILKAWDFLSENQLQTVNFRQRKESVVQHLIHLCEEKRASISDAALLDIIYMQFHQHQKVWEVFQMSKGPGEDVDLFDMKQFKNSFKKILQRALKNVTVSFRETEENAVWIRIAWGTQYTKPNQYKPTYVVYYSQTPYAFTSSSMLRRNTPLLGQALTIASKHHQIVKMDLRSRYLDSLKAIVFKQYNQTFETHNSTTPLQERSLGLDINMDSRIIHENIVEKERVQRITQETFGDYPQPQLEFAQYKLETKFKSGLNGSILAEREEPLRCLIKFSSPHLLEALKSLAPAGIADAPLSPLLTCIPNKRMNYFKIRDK
UniProt Q13257: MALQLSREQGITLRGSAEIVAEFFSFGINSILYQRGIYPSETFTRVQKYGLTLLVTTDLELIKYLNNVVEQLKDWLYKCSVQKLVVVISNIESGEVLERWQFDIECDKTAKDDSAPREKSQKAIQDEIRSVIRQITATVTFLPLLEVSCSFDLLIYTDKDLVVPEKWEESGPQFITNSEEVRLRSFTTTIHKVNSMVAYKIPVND

Biological target: T1, Flag-DRG1 (developmentally regulated GTP binding protein 1) (UniProt Q9Y295)
T1 sequence: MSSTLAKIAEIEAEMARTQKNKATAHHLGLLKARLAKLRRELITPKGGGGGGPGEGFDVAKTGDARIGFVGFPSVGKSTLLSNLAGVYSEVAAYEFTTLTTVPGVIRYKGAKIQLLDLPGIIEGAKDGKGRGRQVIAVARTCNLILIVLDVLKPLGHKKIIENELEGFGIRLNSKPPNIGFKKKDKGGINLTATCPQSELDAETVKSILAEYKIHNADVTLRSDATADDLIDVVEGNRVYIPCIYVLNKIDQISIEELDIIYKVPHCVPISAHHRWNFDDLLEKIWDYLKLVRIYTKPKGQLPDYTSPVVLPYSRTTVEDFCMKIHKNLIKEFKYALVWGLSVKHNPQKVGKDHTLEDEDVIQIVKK
Experiment: co-IP; A549, H1299 and HeLa cells transfected with vector or Flag-DRG1, lysed after 48 h in HEPES lysis buffer (20 mM HEPES pH 7.2, 50 mM NaCl, 0.5% Triton X-100, 1 mM NaF, 1 mM DTT, protease inhibitors); immunoprecipitation with Flag antibody 4 h at 4°C, protein A/G-agarose overnight at 4°C; immunoblot with antibodies to the endogenous proteins

Question: BubR1 (from UniProt O60566 1-1050) was tested. Which binding did it give?
Answer: Its binding is “binds”.

Question: How did the binding turn out when “CENPN (centromere protein N) (from UniProt Q96H22 1-339)” was run?
Answer: Its binding is “binds”.

Question: With “Mad2 (MAD2 mitotic arrest deficient-like 1) (from UniProt Q13257 1-205)” as the substance, how does the binding read?
Answer: Its binding is “binds”.
